The test addresses KV1.5 channel (UniProt P22460). Nature of the test: co-IP; HEK293 cells coexpressing KV1.5 and FLAG-tagged Lgi3 or Lgi4; lysates immunoprecipitated with anti-KV1.5 antibody, immunoblotted for KV1.5 and FLAG; also done with KVβ1.2 coexpressed (Figure S11C and D). (In western blotting, separated proteins are transferred to a membrane and probed.)

By UniProt entry, the sequences of proteins in these tests, tags left out.
UniProt P22460: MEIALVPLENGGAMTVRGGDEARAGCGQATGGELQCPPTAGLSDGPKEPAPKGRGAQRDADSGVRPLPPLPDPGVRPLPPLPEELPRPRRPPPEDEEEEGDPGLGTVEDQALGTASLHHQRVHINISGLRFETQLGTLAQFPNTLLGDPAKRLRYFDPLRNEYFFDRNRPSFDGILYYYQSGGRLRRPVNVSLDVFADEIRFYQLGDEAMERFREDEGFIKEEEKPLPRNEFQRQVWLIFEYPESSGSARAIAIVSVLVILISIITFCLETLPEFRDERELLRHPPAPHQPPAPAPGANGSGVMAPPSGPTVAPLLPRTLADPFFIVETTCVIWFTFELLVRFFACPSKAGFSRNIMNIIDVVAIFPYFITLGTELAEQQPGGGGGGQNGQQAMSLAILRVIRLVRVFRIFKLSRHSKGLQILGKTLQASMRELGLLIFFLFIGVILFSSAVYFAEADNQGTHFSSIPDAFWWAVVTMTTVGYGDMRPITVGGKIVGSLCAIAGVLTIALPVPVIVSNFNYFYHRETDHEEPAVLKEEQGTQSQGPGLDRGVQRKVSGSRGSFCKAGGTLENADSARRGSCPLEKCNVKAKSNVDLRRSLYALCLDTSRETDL

Experimental findings from article PMC13196873 are described below.

Results are given in words; binding and its absence hold for the method and conditions named. Binding seen in cells or lysates may run through a third protein. Some binding calls cover weakened binding; strength is not graded here. Where a sequence is shown, tags or fusion partners need not be part of it.

B1: Lgi3 (FLAG-tagged) (protein, UniProt Q8N145 31-548)
chain: KRPPKTPPCPPSCSCTRDTAFCVDSKAVPRNLPSEVISLTLVNAAFSEIQDGAFSHLPLLQFLLLNSNKFTLIGDNAFTGLSHLQYLFIENNDIWALSKFTFRGLKSLTHLSLANNNLQTLPRDIFRPLDILNDLDLRGNSLNCDCKVKWLVEWLAHTNTTVAPIYCASPPRFQEHKVQDLPLREFDCITTDFVLYQTLAFPAVSAEPFLYSSDLYLALAQPGVSACTILKWDYVERQLRDYDRIPAPSAVHCKPMVVDSQLYVVVAQLFGGSYIYHWDPNTTRFTRLQDIDPQRVRKPNDLEAFRIDGDWYFAVADSSKAGATSLYRWHQNGFYSHQALHPWHRDTDLEFVDGEGKPRLIVSSSSQAPVIYQWSRTQKQFVAQGEVTQVPDAQAVKHFRAGRDSYLCLSRYIGDSKILRWEGTRFSEVQALPSRGSLALQPFLVGGRRYLALGSDFSFTQIYQWDEGRQKFVRFQELAVQAPRAFCYMPAGDAQLLLAPSFKGQTLVYRHIVVDLSA
In the case of B1, the binding result is reported as “binds”.

B2: Lgi4 (FLAG-tagged) (protein, UniProt Q8N135-1 20-537)
chain: WRPPKGKCPLRCSCSKDSALCEGSPDLPVSFSPTLLSLSLVRTGVTQLKAGSFLRIPSLHLLLFTSNSFSVIEDDAFAGLSHLQYLFIEDNEIGSISKNALRGLRSLTHLSLANNHLETLPRFLFRGLDTLTHVDLRGNPFQCDCRVLWLLQWMPTVNASVGTGACAGPASLSHMQLHHLDPKTFKCRAIELSWFQTVGESALSVEPFSYQGEPHIVLAQPFAGRCLILSWDYSLQRFRPEEELPAASVVSCKPLVLGPSLFVLAARLWGGSQLWARPSPGLRLAPTQTLAPRRLLRPNDAELLWLEGQPCFVVADASKAGSTTLLCRDGPGFYPHQSLHAWHRDTDAEALELDGRPHLLLASASQRPVLFHWTGGRFERRTDIPEAEDVYATRHFQAGGDVFLCLTRYIGDSMVMRWDGSMFRLLQQLPSRGAHVFQPLLIARDQLAILGSDFAFSQVLRLEPDKGLLEPLQELGPPALVAPRAFAHITMAGRRFLFAACFKGPTQIYQHHEIDLSA
For B2, the binding result is given as “binds”.
